Tests used:
[1] = Yes/No; Yes for No. 1-14, No for No. 15-18; cited from earlier work
[2] = test system: cell structure having a liver sinusoidal network produced using heparin and a collagen solution (Example B); assay: Toxicity evaluation by ATP assay, cell structure of Example B (produced using heparin and a collagen solution); conditions: Homo sapiens, read-out: IC50 Example B
[3] = test system: cell structure having a liver sinusoidal network produced using CMF (Example A); assay: Toxicity evaluation by ATP assay, cell structure of Example A (produced using CMF); conditions: Homo sapiens, read-out: IC50 Example A

**Q.** Which Toxicity [1] does the source give for COC(=O)C1=C(C)NC(C)=C(C(=O)OC)C1c1ccccc1[N+](=O)[O-] [Nifedipine] here?
**A.** Its Toxicity is “Yes”.

**Q.** And the IC50 [2]?
**A.** Its IC50 is 360 µM.

**Q.** And the IC50 [3]?
**A.** The IC50 was 552 µM.

— US20220411750A1, “CELL STRUCTURE, PRODUCTION METHOD THEREOF, AND METHOD FOR EVALUATING HEPATOTOXICITY OF SUBSTANCE TO BE TESTED” (TOPPAN INC., priority 2019, published 2022)
